Measured values taken from the supplement of paper PMC10849652.
Some of the results follow.

Amino acid sequences for entries named in this document (tags omitted). A change or cut given only in a name is not applied to a line headed by its entry.
UniProt P47900: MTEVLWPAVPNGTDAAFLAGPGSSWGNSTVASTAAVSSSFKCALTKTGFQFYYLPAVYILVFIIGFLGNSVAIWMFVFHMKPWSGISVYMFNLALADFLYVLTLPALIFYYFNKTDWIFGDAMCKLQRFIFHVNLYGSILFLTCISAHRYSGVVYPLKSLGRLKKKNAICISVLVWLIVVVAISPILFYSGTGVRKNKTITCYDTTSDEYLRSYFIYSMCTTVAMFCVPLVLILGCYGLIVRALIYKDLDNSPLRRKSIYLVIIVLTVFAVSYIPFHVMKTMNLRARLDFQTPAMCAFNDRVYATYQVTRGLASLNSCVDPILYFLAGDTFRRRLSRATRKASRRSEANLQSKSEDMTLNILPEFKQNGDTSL
UniProt Q9BZ23: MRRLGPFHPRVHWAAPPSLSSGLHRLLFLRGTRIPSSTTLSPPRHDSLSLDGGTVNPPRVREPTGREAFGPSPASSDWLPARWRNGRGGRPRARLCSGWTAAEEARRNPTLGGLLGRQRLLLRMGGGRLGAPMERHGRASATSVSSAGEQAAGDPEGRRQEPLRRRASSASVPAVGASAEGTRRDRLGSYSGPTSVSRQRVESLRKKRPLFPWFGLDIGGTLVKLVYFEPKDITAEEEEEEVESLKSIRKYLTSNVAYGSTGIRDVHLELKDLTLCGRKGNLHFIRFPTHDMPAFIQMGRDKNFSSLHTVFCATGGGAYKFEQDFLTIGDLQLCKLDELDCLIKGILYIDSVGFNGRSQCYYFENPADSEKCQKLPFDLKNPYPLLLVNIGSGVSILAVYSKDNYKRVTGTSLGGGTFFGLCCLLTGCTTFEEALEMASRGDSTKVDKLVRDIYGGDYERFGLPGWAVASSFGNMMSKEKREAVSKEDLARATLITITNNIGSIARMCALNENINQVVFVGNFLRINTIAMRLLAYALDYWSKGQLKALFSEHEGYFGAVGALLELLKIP
UniProt Q86VP3, whole entry, looked up: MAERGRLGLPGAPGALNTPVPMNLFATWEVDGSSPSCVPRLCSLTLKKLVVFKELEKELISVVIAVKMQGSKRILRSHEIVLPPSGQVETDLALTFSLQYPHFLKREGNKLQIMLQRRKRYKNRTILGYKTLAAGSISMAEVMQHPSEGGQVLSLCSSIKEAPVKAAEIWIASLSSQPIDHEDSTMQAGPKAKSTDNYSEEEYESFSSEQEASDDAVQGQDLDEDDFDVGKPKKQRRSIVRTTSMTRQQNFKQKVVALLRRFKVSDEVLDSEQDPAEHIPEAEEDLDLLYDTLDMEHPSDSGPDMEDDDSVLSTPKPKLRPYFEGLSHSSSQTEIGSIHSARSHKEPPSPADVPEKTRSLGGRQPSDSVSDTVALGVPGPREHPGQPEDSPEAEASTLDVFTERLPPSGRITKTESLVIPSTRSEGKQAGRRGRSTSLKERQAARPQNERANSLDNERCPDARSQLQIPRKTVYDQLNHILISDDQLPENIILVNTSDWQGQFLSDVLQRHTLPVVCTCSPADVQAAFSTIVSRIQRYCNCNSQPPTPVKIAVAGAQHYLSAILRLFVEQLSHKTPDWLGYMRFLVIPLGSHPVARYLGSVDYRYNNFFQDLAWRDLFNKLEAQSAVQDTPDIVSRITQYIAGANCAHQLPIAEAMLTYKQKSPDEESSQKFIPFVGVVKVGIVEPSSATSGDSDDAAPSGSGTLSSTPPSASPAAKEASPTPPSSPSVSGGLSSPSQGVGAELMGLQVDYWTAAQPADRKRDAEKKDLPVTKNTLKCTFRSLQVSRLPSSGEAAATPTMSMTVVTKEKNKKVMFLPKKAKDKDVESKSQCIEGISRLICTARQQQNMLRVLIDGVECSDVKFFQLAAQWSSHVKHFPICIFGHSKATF
UniProt Q9Y6K5: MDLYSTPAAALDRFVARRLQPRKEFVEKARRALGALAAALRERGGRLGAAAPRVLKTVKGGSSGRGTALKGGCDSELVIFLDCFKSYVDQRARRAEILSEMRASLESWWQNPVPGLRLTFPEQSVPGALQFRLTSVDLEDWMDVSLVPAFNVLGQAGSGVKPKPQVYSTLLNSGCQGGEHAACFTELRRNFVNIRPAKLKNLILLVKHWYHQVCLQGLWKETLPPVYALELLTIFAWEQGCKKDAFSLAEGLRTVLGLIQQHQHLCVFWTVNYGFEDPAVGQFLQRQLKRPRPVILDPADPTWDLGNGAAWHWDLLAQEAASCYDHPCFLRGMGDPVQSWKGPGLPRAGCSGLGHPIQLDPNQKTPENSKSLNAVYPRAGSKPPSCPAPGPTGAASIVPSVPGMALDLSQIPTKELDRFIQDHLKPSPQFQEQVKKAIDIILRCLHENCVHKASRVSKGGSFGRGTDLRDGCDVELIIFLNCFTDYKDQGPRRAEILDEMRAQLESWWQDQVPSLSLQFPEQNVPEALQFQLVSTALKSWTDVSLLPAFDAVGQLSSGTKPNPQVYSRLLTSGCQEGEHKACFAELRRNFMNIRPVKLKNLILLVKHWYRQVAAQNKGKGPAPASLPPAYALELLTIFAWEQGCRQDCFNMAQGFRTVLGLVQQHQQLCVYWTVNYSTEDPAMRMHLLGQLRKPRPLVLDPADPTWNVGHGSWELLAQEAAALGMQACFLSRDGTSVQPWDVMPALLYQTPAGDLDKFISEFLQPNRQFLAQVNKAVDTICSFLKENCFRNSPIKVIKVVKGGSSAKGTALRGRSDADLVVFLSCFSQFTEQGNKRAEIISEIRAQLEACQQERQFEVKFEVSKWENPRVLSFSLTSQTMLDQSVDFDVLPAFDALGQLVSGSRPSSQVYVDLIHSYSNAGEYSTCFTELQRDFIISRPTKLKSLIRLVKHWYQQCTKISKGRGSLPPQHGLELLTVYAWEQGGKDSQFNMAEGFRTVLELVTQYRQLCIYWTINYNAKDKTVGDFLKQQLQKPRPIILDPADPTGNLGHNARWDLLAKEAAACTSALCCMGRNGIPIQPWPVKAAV
UniProt Q8NFH5: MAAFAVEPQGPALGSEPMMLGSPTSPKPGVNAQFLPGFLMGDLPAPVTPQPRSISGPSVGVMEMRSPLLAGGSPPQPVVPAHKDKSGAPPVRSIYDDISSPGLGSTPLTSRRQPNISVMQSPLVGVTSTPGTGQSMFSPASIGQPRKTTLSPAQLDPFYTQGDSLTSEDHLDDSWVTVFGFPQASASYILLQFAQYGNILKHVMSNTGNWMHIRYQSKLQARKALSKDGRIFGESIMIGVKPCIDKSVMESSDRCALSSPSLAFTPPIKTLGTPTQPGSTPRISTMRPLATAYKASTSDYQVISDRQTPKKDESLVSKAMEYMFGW
UniProt Q6QHF9: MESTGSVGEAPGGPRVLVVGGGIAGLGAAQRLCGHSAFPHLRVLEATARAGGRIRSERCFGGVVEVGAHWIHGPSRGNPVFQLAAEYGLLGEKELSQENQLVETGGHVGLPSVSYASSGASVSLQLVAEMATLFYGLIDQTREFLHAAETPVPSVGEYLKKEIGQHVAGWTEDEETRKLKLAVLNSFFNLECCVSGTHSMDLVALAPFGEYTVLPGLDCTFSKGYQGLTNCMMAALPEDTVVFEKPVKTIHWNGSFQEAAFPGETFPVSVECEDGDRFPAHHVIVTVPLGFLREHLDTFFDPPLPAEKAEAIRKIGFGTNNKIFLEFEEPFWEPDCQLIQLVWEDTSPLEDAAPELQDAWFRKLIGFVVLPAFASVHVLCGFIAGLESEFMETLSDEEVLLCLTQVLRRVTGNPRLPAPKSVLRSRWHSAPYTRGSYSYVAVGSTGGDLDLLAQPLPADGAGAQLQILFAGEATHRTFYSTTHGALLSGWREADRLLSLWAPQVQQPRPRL
UniProt Q86U42: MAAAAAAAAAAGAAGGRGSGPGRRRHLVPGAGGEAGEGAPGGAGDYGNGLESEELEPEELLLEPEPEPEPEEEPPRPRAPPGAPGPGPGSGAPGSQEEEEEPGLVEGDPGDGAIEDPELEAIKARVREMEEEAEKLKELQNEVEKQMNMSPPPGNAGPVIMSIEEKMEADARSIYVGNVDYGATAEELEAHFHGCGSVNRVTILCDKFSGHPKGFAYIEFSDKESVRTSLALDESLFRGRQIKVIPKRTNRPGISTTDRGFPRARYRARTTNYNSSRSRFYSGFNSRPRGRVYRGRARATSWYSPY
UniProt O60829: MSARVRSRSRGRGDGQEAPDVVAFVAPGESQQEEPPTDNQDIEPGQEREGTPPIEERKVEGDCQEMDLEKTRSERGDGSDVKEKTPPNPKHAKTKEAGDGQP
UniProt Q5BKU9: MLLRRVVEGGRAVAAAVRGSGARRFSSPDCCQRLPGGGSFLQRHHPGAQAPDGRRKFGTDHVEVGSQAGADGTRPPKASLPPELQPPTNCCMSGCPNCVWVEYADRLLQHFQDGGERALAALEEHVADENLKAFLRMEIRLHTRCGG
UniProt Q96D31, whole entry, looked up: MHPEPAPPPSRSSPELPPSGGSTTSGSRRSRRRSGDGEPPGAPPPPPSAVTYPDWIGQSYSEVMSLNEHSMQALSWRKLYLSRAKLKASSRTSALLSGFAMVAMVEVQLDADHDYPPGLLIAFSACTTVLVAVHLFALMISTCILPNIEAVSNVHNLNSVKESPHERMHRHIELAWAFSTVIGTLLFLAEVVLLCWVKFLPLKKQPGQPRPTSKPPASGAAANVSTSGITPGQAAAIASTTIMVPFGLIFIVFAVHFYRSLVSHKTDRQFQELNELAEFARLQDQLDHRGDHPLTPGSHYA
UniProt O60890: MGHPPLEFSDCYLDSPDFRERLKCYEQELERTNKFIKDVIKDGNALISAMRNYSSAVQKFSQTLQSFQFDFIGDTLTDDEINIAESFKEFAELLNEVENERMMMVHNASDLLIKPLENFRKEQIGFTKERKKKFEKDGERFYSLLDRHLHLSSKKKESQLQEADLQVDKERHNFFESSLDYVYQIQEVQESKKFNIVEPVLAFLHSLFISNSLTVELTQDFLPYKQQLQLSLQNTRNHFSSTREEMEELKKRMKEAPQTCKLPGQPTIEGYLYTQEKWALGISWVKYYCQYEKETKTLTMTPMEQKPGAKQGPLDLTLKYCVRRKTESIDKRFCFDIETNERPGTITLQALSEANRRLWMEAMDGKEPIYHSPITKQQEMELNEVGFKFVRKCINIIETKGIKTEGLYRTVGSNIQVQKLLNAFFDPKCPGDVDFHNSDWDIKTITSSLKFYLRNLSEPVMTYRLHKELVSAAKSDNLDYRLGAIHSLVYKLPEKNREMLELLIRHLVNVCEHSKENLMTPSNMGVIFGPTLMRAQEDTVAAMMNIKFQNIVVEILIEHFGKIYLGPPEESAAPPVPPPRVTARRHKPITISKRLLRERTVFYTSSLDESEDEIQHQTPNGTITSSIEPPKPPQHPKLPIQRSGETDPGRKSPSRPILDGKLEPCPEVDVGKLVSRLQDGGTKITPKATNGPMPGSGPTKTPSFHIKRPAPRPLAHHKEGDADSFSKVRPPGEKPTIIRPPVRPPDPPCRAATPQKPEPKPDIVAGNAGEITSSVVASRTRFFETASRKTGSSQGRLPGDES
UniProt Q8N573: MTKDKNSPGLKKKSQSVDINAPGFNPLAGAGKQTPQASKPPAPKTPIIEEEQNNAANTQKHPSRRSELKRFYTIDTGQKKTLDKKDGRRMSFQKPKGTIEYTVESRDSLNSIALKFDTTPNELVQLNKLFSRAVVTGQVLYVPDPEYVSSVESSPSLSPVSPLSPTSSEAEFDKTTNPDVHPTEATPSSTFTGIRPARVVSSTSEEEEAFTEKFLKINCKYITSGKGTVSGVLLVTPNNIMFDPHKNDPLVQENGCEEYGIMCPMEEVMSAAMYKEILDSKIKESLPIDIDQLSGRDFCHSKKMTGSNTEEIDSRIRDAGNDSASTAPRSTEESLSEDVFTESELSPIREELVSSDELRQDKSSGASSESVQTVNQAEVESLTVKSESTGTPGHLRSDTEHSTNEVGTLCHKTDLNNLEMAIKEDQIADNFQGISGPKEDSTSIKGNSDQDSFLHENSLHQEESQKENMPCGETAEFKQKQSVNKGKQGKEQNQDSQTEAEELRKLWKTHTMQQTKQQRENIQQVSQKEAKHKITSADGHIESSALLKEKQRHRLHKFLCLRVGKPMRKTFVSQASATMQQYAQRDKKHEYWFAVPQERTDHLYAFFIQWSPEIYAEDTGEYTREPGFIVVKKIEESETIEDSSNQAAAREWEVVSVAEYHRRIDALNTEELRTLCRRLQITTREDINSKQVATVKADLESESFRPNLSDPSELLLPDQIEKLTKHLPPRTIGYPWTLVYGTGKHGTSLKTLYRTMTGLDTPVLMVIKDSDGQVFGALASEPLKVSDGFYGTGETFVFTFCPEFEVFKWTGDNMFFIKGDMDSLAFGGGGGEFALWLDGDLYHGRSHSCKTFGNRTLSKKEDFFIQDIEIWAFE
UniProt Q86UD1: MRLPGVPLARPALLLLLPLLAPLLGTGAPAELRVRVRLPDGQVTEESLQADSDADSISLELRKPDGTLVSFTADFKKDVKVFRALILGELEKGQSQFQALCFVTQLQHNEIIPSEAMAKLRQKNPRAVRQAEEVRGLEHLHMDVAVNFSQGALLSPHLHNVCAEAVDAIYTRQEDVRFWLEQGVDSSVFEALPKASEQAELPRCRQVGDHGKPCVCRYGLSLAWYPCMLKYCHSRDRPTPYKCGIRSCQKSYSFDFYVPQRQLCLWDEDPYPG

Each target was assayed with C1COCCN1CCN2C3=CC=CC=C3N=C2NC(=O)C4=CC(=CC=C4)[N+](=O)[O-] [IRAK-1-4 Inhibitor I] (assay: log2 fold change, soluble protein after heating vs DMSO (PISA); higher = thermal stabilisation; K562 lysate, 10 uM; active = over 0.2 and 3.5 SD of the protein, either way, in both replicates (recomputed)).
How it was run: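 To prepare the extract, K562 pellets were dounce-homogenised in PBS pH 7.4 with 1 mM MgCl2, giving crude material at 1 mg/mL protein. This was treated with 10 μM compound for 30 min, then heated in aliquots for 3 min over 48°C-58°C before pooling and addition of NP-40 to 0.5% at 4°C. Centrifugation at 21,000xg for 90 min left soluble protein in the supernatant, which TMTpro 16plex LC-MS/MS quantified with equalised channel sums. Results are log-two fold changes in thermal stability compared with solvent controls, from duplicates.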

log2 fold change, inactive:
NUP214, A0A494C1F2 0.176
P2RY1 (UniProt P47900) 0.07
PANK2 (UniProt Q9BZ23) 0.14
PACS2 isoform 2 (UniProt Q86VP3) 0.083
OAS3 (UniProt Q9Y6K5) 0.11
NUP35 (UniProt Q8NFH5) -0.008
NUP214 isoform 4 (UniProt P35658) 0.173
OFD1 (UniProt O75665) -0.167
PAOX (UniProt Q6QHF9) 0.079
PABPN1 (UniProt Q86U42) 0.011
PABPC1 (UniProt H0YAR2) 0.028
PAGE4 (UniProt O60829) -0.034
OXLD1 (UniProt Q5BKU9) 0.063
ORAI1 (UniProt Q96D31) 0.06
OPHN1 (UniProt O60890) 0.104
OXR1 isoform 2 (UniProt Q8N573) 0.036
OAF (UniProt Q86UD1) 0.042

A section taken from the entries so far:
log2 fold change, inactive:
OPHN1 (UniProt O60890) 0.104
OXR1 isoform 2 (UniProt Q8N573) 0.036
